Source: PubChem BioAssay AID248 (DTP/NCI, 2004)
The list is a part of this screen's results and no random one: it gathers tests that were run many times, whatever their T/C, doses with no T/C, and many T/C values between a quarter and a half above the control. Further doses and runs are listed elsewhere. T/C is the treated group as % of the vehicle group. Some entries give survivors of the animals treated and no T/C: the source files T/C as zero there, which appears to mark a toxic dose or a test without result, not a measured value. Some survivor counts are full or nearly so, which does not show that the dose was tolerated: survival well below the control is almost never listed, so the zero probably covers shortened survival too. Counts of survivors are from the toxicity check (mostly the fifth day) where no day follows; animals may have died later. Schedule codes are those of the source, read here as Q, the interval in days (D) or hours (H), X, the number of doses. Some schedules carry Z or #; the key to these is not given. Some structures stand for samples that the source files as different forms (salt, stereo form or complex); doses refer to the form tested. Where survival is the endpoint, the PubChem record calls one and a half times the control and up active, and a quarter to a half above the control has no call in these data; cut-offs in other NCI protocols can differ.

System: L1210 leukemia ip in BDF1 mice, survival T/C
Test: NCI In Vivo Anticancer Drug Screen. Data for tumor model L1210 Leukemia (intraperitoneal) in B6D2F1 (BDF1) mice
Conditions: T/C endpoint: mean survival time, higher T/C = longer survival
[1] = dose: 400.0 mg/kg/injection, schedule: Q04DX003 (ip), vehicle: saline with Tween-80
[2] = dose: 400.0 mg/kg/injection, schedule: Q04DX002 (ip), vehicle: saline
[3] = dose: 400.0 mg/kg/injection, schedule: Q01DX009 (ip), vehicle: Klucel (hydroxypropylcellulose) (HPC)
[4] = dose: 400.0 mg/kg/injection, schedule: Q04DX002 (ip), vehicle: Klucel (hydroxypropylcellulose) (HPC)
[5] = dose: 100.0 mg/kg/injection, schedule: Q01DX009 (ip), vehicle: Klucel (hydroxypropylcellulose) (HPC)
[6] = dose: 200.0 mg/kg/injection, schedule: Q01DX009 (ip), vehicle: Klucel (hydroxypropylcellulose) (HPC)
[7] = dose: 150.0 mg/kg/injection, schedule: Q01DX001 (ip), vehicle: saline
[8] = dose: 300.0 mg/kg/injection, schedule: Q01DX001 (ip), vehicle: saline
[9] = dose: 200.0 mg/kg/injection, schedule: Q04DX003 (ip), vehicle: saline with Tween-80
[10] = dose: 100.0 mg/kg/injection, schedule: Q04DX002 (ip), vehicle: saline with Tween-80
[11] = dose: 400.0 mg/kg/injection, schedule: Q04DX002 (ip), vehicle: saline with Tween-80
[12] = dose: 400.0 mg/kg/injection, schedule: Q04DX003 (ip), vehicle: saline
[13] = dose: 400.0 mg/kg/injection, schedule: Q01DX001 (ip), vehicle: saline

In the case of `C1CC[N-]CC1.Oc1ccccc1C=NCCN=Cc1ccccc1O.[CH3-].[Rh+2]`, the survivor count [1] is reported as 3 of 6.

With `Cn1c2c(c3ccccc31)=NN1CCN=C1N=2` the survivor count (dose: 25.0 mg/kg/injection, schedule: Q04DX002 (ip), vehicle: saline) was 0 of 3, the survivor count (dose: 100.0 mg/kg/injection, schedule: Q04DX002 (ip), vehicle: saline) was 0 of 3 and the survivor count (dose: 200.0 mg/kg/injection, schedule: Q04DX002 (ip), vehicle: saline) was 0 of 3. For the same molecule, the survivor count [2] was 0 of 3.

For `C1=CCC2OC2C1` (stereo unspecified), the survivor count [3] was 0 of 6.

`Cc1ncc(C(C)(O)c2ccccc2)n1C` (stereo unspecified) was tested, and the survivor count (dose: 400.0 mg/kg/injection, schedule: Q01DX009 (ip), vehicle: saline with Tween-80) was 0 of 6.

With `Cc1ccnc(NS(=O)(=O)c2ccc(N=[N+]=[N-])cc2)n1` the survivor count (dose: 200.0 mg/kg/injection, schedule: Q01DX009 (ip), vehicle: carboxymethylcellulose (CMC)) was 3 of 3.

With `Cn1nccc2c(=O)n(C)c(=O)nc1-2` the survivor count [4] was 0 of 3.

With `C=C(C)C1Cc2c(ccc3c2OC2COc4cc(OC)c(OC)cc4C2(O)C3=O)O1` (stereo unspecified) the survivor count (dose: 25.0 mg/kg/injection, schedule: Q01DX009 (ip), vehicle: carboxymethylcellulose (CMC)) was 2 of 6, the survivor count (dose: 50.0 mg/kg/injection, schedule: Q01DX009 (ip), vehicle: carboxymethylcellulose (CMC)) was 0 of 6 and the survivor count [5] was 3 of 6. For the same molecule, the survivor count [6] was 0 of 6 and the survivor count [3] was 0 of 6.

With `S=C(NCc1ccccc1)[S][Sn]([S]C(=S)NCc1ccccc1)([c]1ccccc1)[c]1ccccc1` the survivor count (dose: 40.0 mg/kg/injection, schedule: Q01DX001 (ip), vehicle: steroid suspending solution) was 2 of 6, the survivor count (dose: 80.0 mg/kg/injection, schedule: Q01DX001 (ip), vehicle: steroid suspending solution) was 0 of 6 and the survivor count (dose: 100.0 mg/kg/injection, schedule: Q01DX001 (ip), vehicle: steroid suspending solution) was 2 of 6. The survivor count (dose: 200.0 mg/kg/injection, schedule: Q01DX001 (ip), vehicle: steroid suspending solution) was 0 of 6 and the survivor count (dose: 400.0 mg/kg/injection, schedule: Q01DX001 (ip), vehicle: steroid suspending solution) was 0 of 6.

In the case of `CC(C)CCC[C@@H](C)[C@H]1CC[C@H]2[C@@H]3CC[C@H]4C[C@H](NC(=O)N(CCF)N=O)CC[C@]4(C)[C@H]3CC[C@]12C`, the T/C (dose: 125.0 mg/kg/injection, schedule: Q01DX001 (ip), vehicle: other) is reported as 131 % of control.

For `CC(=O)Nc1c([N+](=O)[O-])ccc(Cl)c1Cl`, the survivor count (dose: 400.0 mg/kg/injection, schedule: Q04DX003 (ip), vehicle: Klucel (hydroxypropylcellulose) (HPC)) was 0 of 6.

In the case of `NC(N)=N/N=C/c1cc(Cl)cc(Cl)c1O`, the survivor count [7] is reported as 2 of 6 and the survivor count [8] is reported as 0 of 6.

With `N#CC(Cc1ccccc1)C(=O)O` (stereo unspecified) the survivor count (dose: 400.0 mg/kg/injection, schedule: Q01DX Z (ip), vehicle: saline) was 3 of 6.

For `CC(C)c1ccccc(=O)c1O.CC(C)c1ccccc(=O)c1O.[Cu]`, the survivor count (dose: 100.0 mg/kg/injection, schedule: Q04DX003 (ip), vehicle: saline with Tween-80) was 6 of 6 and the survivor count [1] was 5 of 6.

With `O=C(O)c1c[nH]n2c(=S)ncnc12` the survivor count [1] was 2 of 6.

In the case of `CCOC1=C(NC(C)=O)C(=O)c2ccccc2C1=O`, the survivor count (dose: 150.0 mg/kg/injection, schedule: Q01DX001 (ip), vehicle: other) is reported as 0 of 6 and the survivor count (dose: 300.0 mg/kg/injection, schedule: Q01DX001 (ip), vehicle: other) is reported as 0 of 6.

With `CC(C(N)=O)N1C(=O)C2C3C=CC(C3)C2C1=O` (stereo unspecified) the survivor count [9] was 3 of 3.

For `CC1(C)C2CCC1(C)C(N=C(N)CSS(=O)(=O)O)C2` (stereo unspecified), the survivor count (dose: 50.0 mg/kg/injection, schedule: Q04DX002 (ip), vehicle: Klucel (hydroxypropylcellulose) (HPC)) was 3 of 3, the survivor count (dose: 100.0 mg/kg/injection, schedule: Q04DX002 (ip), vehicle: Klucel (hydroxypropylcellulose) (HPC)) was 3 of 3 and the survivor count (dose: 200.0 mg/kg/injection, schedule: Q04DX002 (ip), vehicle: Klucel (hydroxypropylcellulose) (HPC)) was 1 of 3. For the same molecule, the survivor count [4] was 0 of 3.

`FC1(F)SC2C3CCC(C3)C2C1(F)F` (stereo unspecified) was tested, and the survivor count [10] was 0 of 3, the survivor count (dose: 200.0 mg/kg/injection, schedule: Q04DX002 (ip), vehicle: saline with Tween-80) was 0 of 3 and the survivor count [11] was 0 of 3.

With `CCC[N+](C)(C)CCOC(=O)C1C2CC3OC(=O)C1C3C2` (stereo unspecified) the survivor count [12] was 0 of 4.

With `CN(C)c1ccc(C(N)C(=O)O)cc1` (stereo unspecified) the survivor count [13] was 0 of 4.

`CC(=O)[O][Sn]([c]1ccccc1)([c]1ccccc1)[c]1ccccc1` was tested, and the survivor count (dose: 3.12 mg/kg/injection, schedule: Q04DX003 (ip), vehicle: saline) was 6 of 6, the survivor count (dose: 4.0 mg/kg/injection, schedule: Q01DX015 (ip), vehicle: saline) was 1 of 6 and the survivor count (dose: 5.31 mg/kg/injection, schedule: Q01DX009 (ip), vehicle: saline with Tween-80) was 3 of 6. The survivor count (dose: 6.25 mg/kg/injection, schedule: Q04DX003 (ip), vehicle: saline) was 2 of 6, the survivor count (dose: 8.0 mg/kg/injection, schedule: Q01DX015 (ip), vehicle: saline) was 3 of 6 and the survivor count (dose: 100.0 mg/kg/injection, schedule: Q04DX003 (ip), vehicle: acetone) was 0 of 6. For the same molecule, the survivor count (dose: 200.0 mg/kg/injection, schedule: Q04DX003 (ip), vehicle: acetone) was 0 of 6 and the survivor count (dose: 400.0 mg/kg/injection, schedule: Q04DX003 (ip), vehicle: acetone) was 0 of 6.

`CCOP(=O)(OCC)Oc1ccc(S(C)=O)cc1` (stereo unspecified) was tested, and the survivor count (dose: 10.0 mg/kg/injection, schedule: Q01DX001 (ip), vehicle: saline) was 0 of 6, the survivor count (dose: 20.0 mg/kg/injection, schedule: Q01DX001 (ip), vehicle: saline) was 0 of 6 and the survivor count (dose: 40.0 mg/kg/injection, schedule: Q01DX001 (ip), vehicle: saline) was 0 of 6. The survivor count (dose: 75.0 mg/kg/injection, schedule: Q01DX001 (ip), vehicle: saline) was 0 of 6, the survivor count (dose: 80.0 mg/kg/injection, schedule: Q01DX001 (ip), vehicle: saline) was 0 of 6 and the survivor count [7] was 0 of 6. The survivor count [8] was 0 of 6.

With `CC(C)(C)C1CCC(=N[N+](C)(C)C)CC1` (stereo unspecified) the survivor count (dose: 200.0 mg/kg/injection, schedule: Q01DX001 (ip), vehicle: saline) was 2 of 4 and the survivor count [13] was 0 of 4.

`[N-]=[N+]=Nc1ccc(Cl)cc1C(=O)c1ccccc1` was tested, and the survivor count (dose: 200.0 mg/kg/injection, schedule: Q04DX003 (ip), vehicle: saline) was 0 of 6 and the survivor count [12] was 0 of 6.

For `CCC(C)C(C=O)(CCN(C)CC)c1cccc2ccccc12` (stereo unspecified), the survivor count [10] was 1 of 3.

`CC(C)CC(C=O)(CCN1CCCCC1)c1cccc2ccccc12` (stereo unspecified) was tested, and the survivor count [11] was 0 of 3 and the survivor count [2] was 0 of 3.

With `CCOC(=O)OC1CC/C(=N\N=C(N)N)C1` (stereo unspecified) the survivor count (dose: 60.0 mg/kg/injection, schedule: Q01DX Z (ip), vehicle: methylcellulose (MC)) was 6 of 6, the survivor count (dose: 250.0 mg/kg/injection, schedule: Q01DX Z (ip), vehicle: methylcellulose (MC)) was 0 of 6 and the survivor count (dose: 375.0 mg/kg/injection, schedule: Q01DX Z (ip), vehicle: methylcellulose (MC)) was 0 of 6. The survivor count (dose: 500.0 mg/kg/injection, schedule: Q01DX Z (ip), vehicle: methylcellulose (MC)) was 0 of 6.

In the case of `CCCCCCCCCOc1ccc(C=Nc2ccc(CC)cc2)cc1`, the survivor count [5] is reported as 6 of 6, the survivor count [6] is reported as 6 of 6 and the survivor count [3] is reported as 5 of 6.

In the case of `CCOC1CC2c3ccccc3C1c1cccc[n+]12` (stereo unspecified), the survivor count (dose: 100.0 mg/kg/injection, schedule: Q01DX009 (ip), vehicle: saline) is reported as 3 of 6 and the survivor count (dose: 115.0 mg/kg/injection, schedule: Q01DX009 (ip), vehicle: saline) is reported as 0 of 6.

For `O=C(Nc1ncccn1)c1ccc(Cl)cc1Cl`, the survivor count [9] was 6 of 6.
